# ± gives the standard deviation. The entries are a selection whose mix differs from that of the whole data set. The uncertainty is large for many entries.
# System: MIWI (PIWIL1) piRISC loaded with piRNA #2 (30 nt)
# Assay: pre-steady-state target cleavage rate (min^-1); MIWI and MILI are mouse PIWI proteins and EfPiwi is from a freshwater sponge; tags in brackets are library labels; higher = faster piRNA-guided slicing of the target
# Conditions: guide: piRNA #2 5'p-UUAGGUAACCCAGUAGAUCCAGAGGAAUUC; auxiliary factor: 500 nM mouse GTSF1
# In short: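 The pre-steady-state cleavage rate was derived from a burst-and-steady-state fit of Cleave-'n-Seq data. For these assays, 1 nM active affinity-purified piRISC loaded with a single synthetic guide was mixed with […] a transcribed, DNA-blocked target RNA library in HEPES–potassium acetate buffer at 33 °C, with or without 500 nM GTSF1 partner protein, for 0–8 or 0–960 min. Sequencing counts of uncleaved targets were normalised to depth and to weakly complementary targets, and k3 was capped at 0.0001 min^-1 after three trials were pooled.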
# 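Also: 1 nM active piRISC with 0.1 nM target library at 33 °C single turnover.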
row,Sequence,pre-steady-state target cleavage rate
1,CUUAAGGUCUGGAUCUACUGGAGUUACCUAA,0.000263 ± 0.023
2,CUUAAGGAGACGAUCUACUGGGUUACUAA,0.000188 ± 0.02
3,CUUAACCUCUGGAUCUACAUGGGUUACCUAA,0.00095 ± 0.0092
4,CUUAAGGAGACCUAGAUGUAGGGUUACCUAA,0.000438 ± 0.019
5,CUUAAGGAGACCUUCUACUGCCUUACCUAA,0.00122 ± 0.007
6,CUUAAGGAGACCUUCUACUGGGUAACCUAA,0.00115 ± 0.0059
7,CUUAAGGAGUGGAUCUACUGGGUUAGCAAA,0.000657 ± 0.023
8,GAAUUCCUCUGGAUCUAGUGGGAUACCUAA,0.0616 ± 0.011
9,CUUAAGGAGACCUUCUACUGGCAUACCUAA,0.00199 ± 0.0044
10,CUUAAGGAGUGGAUCUACUGCCUUACCUAA,0.000546 ± 0.015
11,CUUAAGGAGACCUUCUACUGGAUUACCUAA,0.000468 ± 0.008
12,CUUUUCCUCUGGAUCUACUGCCUUACCUAA,0.0739 ± 0.012
13,CUUAAGGAGACCUUCUACUGGGUUACCAA,0.00153 ± 0.0094
14,CUUAAGGAGACCUAGAUGUGGGUUACAUAA,0.000418 ± 0.016
15,CUUAAGGAGACCUAGAUCUGGUUACCUAA,0.000346 ± 0.01
16,CUUAAGGAGACCUAGAUGUGAGGUUACCUAA,0.000926 ± 0.0097
17,CUUAAGGAGACCUAGUUCUGGGUUACCUAA,0.000998 ± 0.0074
18,CUUAAGGAGACCAUCUACUGGGUUACCUA,0.00195 ± 0.0045
19,CUUAAGGAGACCUAGAUCUGGGUUACCUAAA,0.00119 ± 0.005
20,CUUAAGGACUGGAUCUACAGCGUUACCUAA,0.00714 ± 0.0051
21,CUUAAGGAGACCAACAACUGGGUUACCUAA,0.00107 ± 0.014
22,CUUAAGGAGAGGAUCAACUGCGUUACCUAA,0.00258 ± 0.0033
23,CUUUUCCUCUGGCAUCUACUGGGUUACCUAA,0.331 ± 0.089
24,CUUAAGGAGACCUUCUACUGGGUUACCUAG [g2:g17:cont:t1G],0.00304 ± 0.0043

# Look-ups from the list.
# For pre-steady-state target cleavage rate, CUUAAGGAGACCUAGAUCUGGUUACCUAA has the entry 0.000346 ± 0.01
# For pre-steady-state target cleavage rate, CUUAAGGAGACCUAGAUGUGAGGUUACCUAA has the entry 0.000926 ± 0.0097

# (further entries)

row,Sequence,pre-steady-state target cleavage rate
1,CUUAAGGAGACCAUGCUACUGGGUUACCUAA,0.0021 ± 0.0066
2,CUUAAGGAGACCUAGAUGAGGCAUACCUAA,0.000409 ± 0.014
3,CUUAAGGAGACUAUCUACUGGGUUACCUAA,0.00326 ± 0.0033
4,CUUAAGGAGAGGUUCUACUGCGUUACCUAA,0.00303 ± 0.0038
5,CUUAAGGAGACCUAGAUCUGGGUAUACCUAA,0.00127 ± 0.0053
6,CAAUUCCUCUGGAUCUACUGGGUUACGUAA,0.598 ± 0.065
7,CAAUUCCUCUGGAUCUACUGGGUAUGGAUA [g8:g29:cont:t1A],0.000567 ± 0.013
8,CUAUACCUCUGGUUCUACUGGGUUACCUAA,0.696 ± 0.053
9,CUUAAGGAGACGAUCUACUCGGUUACGUAA,0.000323 ± 0.015
10,CUUAUCCUCUGGAUCGUACUGGGUUACCUAA,0.00456 ± 0.0046
11,CUUAAGGAGAGGAGUCUACUGGGUUACCUAA,0.00237 ± 0.0053
12,CUUAAGGAGACCUUCUACUGCGAUACCUAA,0.00339 ± 0.0047
13,CUUAAGGAGACCUACUACUGGGUUACCGUAA,0.00122 ± 0.0075
14,CUUAAGGAGUGGAUCUACUGGGUUAGCUUA,0.00234 ± 0.0056
15,CUUAAGCUCUGGAUCUACUGGGUUACCUAG [g2:g24:cont:t1G],0.0755 ± 0.013
16,CUUAAGGAGACGAUGUACUGCGUUACCUAA,0.00164 ± 0.0039
17,CUUUUCCUCUGGAUCUACUGCGGUUACCUAA,0.00259 ± 0.0036
18,CUUAAGGAGUGGAUCUACUGGGUUACCGAA,0.0437 ± 0.018
19,CUUAAGGACUGCAUCUACUGCGUUACCUAA,0.00295 ± 0.013
20,CUUAAGGAGUGGAUCUACUGCGUUUCCUAA,0.00293 ± 0.0038
21,CUUAAGGAGACCUAGAUCUGGGUUACCGUAA,0.000672 ± 0.013
22,CAAUUCCUCUGGAUCUAGUCGGUUACCUAA,0.00448 ± 0.0049
23,CUUAAGGAGACCUAGUAGUGGCUUACCUAA,0.000192 ± 0.03
24,CUUAAGGAGAGGAUCUACUGGGGUUACCUAA,0.000198 ± 0.018

row,Sequence,pre-steady-state target cleavage rate
1,CUUAAGGAGACGAACUACUGGGUUACCAAA,0.000189 ± 0.035
2,CUUAUCCUCUGGAUCUACUGGCAAACCUAA,0.00254 ± 0.0042
3,CUAUUCCUCUGGAUCUACUGGGAAUGGAUA [g9:g28:cont:t1A],0.0013 ± 0.008
4,GAAUUCCUCUCGAUCUACUGGGUUACGUAA,0.581 ± 0.067
5,CUUAAGGAGACCAACUACAGGGUUACCUAA,0.00197 ± 0.0057
6,CUUAAGGAGACCUACUACUGGGAUACGUAA,0.000185 ± 0.019
7,CUUAAGGAGACCUUCUACUGGGUAACGUAA,0.000957 ± 0.0078
8,CUUAAGGAGACCUAGAUGACGGUUACCUAG [g2:g10:cont:t1G],0.000226 ± 0.026
9,CUUAAGGAGACCUACAACUGGGAUACCUAA,0.000111 ± 0.06
10,CUUAAGGUCUGGAUCUAUGGGUUACCUAA,0.00273 ± 0.0042
11,CUUAAGGAGUGGAUCUACAGGGAUACCUAA,0.00207 ± 0.0053
12,CUUAAGGAGACGAUCUAGUGGGUUAGCUAA,0.000586 ± 0.0092
13,CUUUUCCUCUCGAUCUACUGGGUUACCUAA,0.602 ± 0.04
14,CUUUUCCUCUGGAUCUACUGGGUUACAUAA,0.738 ± 0.042
15,CUUAAGGAGACGAUCAUCUGGGUUACCUAA,0.000698 ± 0.011
16,CAAUUCCUCAGGAUCUACUGGGUUACCUAA,0.695 ± 0.062
17,CUUAAGGAGAGGAUCUAUCUGGGUUACCUAA,0.000165 ± 0.026
18,CUUAAGGAGACCUAGUACUUGGUUACCUAA,0.000376 ± 0.019
19,CUUAAGGAGACCAUACUACUGGGUUACCUAA,0.00226 ± 0.0044
20,CUUAAGGAGUGGAUCUACAGGGUUAGCUAA,0.00357 ± 0.0058
21,CUUAAGGUCUGGAUCUACUGCCAUACCUAA,0.000499 ± 0.017
22,CUUAAGGAGACCUAGAUCUCGGGUUACCUAA,0.000173 ± 0.032
